From US10160767B2 (Institute of Pharmacology and Toxicology Academy of …, priority 2014, dated 2018)
At least one read-out could not be matched to a standard name with certainty.

Experiment: Solubility test (Chinese Pharmacopoeia 2010, Part II)
Assay type: physicochemical

## CO[C@H]1C[C@@H]2CC[C@@H](C)[C@@](O)(O2)C(=O)C(=O)N2CCCC[C@H]2C(=O)O[C@H]([C@H](C)C[C@@H]2CC[C@@H](OC(=O)C[n+]3ccc(C)cc3)[C@H](OC)C2)CC(=O)[C@H](C)/C=C(\C)[C@@H](OC(=O)C[n+]2ccc(C)cc2)[C@@H](OC)C(=O)[C@H](C)C[C@H](C)/C=C/C=C/C=C/1C.[Br-].[Br-] [Example 14, 31,42-O-carbonylmethyl-(4-methyl-pyridine bromide salt-1-yl)-rapamycin]
  Water solubility improved in comparison with rapamycin: 40,000 times
